# Measurements from article PMC12575849.
# Protein sequences, listed by entry. Tags and fused reporters are not part of them.
# UniProt O14646: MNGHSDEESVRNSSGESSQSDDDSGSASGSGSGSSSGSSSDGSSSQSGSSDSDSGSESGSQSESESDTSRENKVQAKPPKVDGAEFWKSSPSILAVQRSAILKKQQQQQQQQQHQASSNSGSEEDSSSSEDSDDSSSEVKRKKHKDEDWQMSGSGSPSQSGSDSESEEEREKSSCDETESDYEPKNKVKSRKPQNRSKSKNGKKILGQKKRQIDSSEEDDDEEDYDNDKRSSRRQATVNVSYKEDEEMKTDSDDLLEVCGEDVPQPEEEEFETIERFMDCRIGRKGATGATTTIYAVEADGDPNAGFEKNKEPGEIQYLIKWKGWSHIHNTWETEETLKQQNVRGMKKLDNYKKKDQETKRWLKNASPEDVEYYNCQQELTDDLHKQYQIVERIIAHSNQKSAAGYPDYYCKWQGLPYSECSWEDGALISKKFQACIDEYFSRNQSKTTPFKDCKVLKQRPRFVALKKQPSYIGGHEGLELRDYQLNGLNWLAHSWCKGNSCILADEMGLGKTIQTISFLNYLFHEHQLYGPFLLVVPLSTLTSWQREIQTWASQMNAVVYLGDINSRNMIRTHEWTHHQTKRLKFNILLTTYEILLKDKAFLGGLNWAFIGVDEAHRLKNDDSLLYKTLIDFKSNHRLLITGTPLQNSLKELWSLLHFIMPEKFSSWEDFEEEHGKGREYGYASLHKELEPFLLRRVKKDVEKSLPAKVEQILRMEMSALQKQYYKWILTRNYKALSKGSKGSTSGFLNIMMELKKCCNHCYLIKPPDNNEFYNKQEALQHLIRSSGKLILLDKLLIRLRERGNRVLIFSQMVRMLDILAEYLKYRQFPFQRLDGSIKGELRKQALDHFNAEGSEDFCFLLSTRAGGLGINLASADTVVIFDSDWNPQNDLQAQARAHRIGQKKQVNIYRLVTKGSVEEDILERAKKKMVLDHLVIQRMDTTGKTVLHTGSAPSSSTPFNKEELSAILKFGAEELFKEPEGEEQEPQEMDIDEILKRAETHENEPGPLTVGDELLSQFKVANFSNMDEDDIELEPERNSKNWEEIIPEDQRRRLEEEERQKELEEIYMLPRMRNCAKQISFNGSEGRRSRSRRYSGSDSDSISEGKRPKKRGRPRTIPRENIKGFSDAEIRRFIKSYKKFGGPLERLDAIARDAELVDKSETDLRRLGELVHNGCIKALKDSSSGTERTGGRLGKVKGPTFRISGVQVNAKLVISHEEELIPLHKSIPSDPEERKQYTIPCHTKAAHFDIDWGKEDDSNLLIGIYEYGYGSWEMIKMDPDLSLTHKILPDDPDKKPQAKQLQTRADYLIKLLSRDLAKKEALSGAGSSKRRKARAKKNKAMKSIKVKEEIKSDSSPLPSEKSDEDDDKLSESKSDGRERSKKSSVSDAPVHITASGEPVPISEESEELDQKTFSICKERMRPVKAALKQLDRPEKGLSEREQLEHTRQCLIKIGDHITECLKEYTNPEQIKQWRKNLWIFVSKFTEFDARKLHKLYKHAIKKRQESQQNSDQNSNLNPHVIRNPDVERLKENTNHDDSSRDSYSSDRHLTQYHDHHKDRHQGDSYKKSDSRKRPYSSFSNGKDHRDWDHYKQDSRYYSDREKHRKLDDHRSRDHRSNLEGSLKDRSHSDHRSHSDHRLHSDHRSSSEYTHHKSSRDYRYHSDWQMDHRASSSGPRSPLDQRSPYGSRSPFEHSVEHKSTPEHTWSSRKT
# UniProt Q9H9B1: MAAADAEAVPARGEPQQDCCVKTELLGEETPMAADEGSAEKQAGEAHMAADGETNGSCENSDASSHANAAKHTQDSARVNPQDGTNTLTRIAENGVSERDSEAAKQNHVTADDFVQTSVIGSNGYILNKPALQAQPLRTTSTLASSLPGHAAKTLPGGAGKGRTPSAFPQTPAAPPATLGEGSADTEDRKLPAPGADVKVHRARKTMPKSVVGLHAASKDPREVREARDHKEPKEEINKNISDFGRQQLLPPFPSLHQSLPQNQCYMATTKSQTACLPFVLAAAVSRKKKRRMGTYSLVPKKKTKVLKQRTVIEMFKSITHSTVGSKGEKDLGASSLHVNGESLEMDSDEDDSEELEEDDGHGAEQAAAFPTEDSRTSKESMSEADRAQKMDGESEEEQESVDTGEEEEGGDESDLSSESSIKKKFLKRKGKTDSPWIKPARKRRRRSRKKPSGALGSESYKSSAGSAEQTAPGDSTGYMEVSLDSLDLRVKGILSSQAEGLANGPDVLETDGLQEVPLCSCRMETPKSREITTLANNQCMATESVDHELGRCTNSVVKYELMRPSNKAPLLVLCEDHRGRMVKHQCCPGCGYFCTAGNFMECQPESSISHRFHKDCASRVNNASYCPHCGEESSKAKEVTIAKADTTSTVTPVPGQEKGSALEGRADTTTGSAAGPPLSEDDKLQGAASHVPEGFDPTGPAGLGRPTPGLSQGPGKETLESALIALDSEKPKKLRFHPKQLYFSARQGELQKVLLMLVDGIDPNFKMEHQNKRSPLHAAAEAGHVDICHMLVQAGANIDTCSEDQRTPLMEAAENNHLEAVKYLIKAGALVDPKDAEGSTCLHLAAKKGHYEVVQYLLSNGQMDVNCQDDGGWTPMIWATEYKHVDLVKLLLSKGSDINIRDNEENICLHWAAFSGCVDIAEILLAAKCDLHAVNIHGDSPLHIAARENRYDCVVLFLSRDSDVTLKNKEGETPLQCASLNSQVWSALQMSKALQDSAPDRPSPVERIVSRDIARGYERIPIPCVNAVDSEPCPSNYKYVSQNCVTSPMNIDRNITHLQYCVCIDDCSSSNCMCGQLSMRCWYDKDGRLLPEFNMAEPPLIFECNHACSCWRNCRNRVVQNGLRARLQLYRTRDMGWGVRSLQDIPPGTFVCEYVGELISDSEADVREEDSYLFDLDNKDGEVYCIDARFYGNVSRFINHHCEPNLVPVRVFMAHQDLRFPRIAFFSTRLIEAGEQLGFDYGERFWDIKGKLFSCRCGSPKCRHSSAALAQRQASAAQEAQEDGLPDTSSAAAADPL
# UniProt Q96L91: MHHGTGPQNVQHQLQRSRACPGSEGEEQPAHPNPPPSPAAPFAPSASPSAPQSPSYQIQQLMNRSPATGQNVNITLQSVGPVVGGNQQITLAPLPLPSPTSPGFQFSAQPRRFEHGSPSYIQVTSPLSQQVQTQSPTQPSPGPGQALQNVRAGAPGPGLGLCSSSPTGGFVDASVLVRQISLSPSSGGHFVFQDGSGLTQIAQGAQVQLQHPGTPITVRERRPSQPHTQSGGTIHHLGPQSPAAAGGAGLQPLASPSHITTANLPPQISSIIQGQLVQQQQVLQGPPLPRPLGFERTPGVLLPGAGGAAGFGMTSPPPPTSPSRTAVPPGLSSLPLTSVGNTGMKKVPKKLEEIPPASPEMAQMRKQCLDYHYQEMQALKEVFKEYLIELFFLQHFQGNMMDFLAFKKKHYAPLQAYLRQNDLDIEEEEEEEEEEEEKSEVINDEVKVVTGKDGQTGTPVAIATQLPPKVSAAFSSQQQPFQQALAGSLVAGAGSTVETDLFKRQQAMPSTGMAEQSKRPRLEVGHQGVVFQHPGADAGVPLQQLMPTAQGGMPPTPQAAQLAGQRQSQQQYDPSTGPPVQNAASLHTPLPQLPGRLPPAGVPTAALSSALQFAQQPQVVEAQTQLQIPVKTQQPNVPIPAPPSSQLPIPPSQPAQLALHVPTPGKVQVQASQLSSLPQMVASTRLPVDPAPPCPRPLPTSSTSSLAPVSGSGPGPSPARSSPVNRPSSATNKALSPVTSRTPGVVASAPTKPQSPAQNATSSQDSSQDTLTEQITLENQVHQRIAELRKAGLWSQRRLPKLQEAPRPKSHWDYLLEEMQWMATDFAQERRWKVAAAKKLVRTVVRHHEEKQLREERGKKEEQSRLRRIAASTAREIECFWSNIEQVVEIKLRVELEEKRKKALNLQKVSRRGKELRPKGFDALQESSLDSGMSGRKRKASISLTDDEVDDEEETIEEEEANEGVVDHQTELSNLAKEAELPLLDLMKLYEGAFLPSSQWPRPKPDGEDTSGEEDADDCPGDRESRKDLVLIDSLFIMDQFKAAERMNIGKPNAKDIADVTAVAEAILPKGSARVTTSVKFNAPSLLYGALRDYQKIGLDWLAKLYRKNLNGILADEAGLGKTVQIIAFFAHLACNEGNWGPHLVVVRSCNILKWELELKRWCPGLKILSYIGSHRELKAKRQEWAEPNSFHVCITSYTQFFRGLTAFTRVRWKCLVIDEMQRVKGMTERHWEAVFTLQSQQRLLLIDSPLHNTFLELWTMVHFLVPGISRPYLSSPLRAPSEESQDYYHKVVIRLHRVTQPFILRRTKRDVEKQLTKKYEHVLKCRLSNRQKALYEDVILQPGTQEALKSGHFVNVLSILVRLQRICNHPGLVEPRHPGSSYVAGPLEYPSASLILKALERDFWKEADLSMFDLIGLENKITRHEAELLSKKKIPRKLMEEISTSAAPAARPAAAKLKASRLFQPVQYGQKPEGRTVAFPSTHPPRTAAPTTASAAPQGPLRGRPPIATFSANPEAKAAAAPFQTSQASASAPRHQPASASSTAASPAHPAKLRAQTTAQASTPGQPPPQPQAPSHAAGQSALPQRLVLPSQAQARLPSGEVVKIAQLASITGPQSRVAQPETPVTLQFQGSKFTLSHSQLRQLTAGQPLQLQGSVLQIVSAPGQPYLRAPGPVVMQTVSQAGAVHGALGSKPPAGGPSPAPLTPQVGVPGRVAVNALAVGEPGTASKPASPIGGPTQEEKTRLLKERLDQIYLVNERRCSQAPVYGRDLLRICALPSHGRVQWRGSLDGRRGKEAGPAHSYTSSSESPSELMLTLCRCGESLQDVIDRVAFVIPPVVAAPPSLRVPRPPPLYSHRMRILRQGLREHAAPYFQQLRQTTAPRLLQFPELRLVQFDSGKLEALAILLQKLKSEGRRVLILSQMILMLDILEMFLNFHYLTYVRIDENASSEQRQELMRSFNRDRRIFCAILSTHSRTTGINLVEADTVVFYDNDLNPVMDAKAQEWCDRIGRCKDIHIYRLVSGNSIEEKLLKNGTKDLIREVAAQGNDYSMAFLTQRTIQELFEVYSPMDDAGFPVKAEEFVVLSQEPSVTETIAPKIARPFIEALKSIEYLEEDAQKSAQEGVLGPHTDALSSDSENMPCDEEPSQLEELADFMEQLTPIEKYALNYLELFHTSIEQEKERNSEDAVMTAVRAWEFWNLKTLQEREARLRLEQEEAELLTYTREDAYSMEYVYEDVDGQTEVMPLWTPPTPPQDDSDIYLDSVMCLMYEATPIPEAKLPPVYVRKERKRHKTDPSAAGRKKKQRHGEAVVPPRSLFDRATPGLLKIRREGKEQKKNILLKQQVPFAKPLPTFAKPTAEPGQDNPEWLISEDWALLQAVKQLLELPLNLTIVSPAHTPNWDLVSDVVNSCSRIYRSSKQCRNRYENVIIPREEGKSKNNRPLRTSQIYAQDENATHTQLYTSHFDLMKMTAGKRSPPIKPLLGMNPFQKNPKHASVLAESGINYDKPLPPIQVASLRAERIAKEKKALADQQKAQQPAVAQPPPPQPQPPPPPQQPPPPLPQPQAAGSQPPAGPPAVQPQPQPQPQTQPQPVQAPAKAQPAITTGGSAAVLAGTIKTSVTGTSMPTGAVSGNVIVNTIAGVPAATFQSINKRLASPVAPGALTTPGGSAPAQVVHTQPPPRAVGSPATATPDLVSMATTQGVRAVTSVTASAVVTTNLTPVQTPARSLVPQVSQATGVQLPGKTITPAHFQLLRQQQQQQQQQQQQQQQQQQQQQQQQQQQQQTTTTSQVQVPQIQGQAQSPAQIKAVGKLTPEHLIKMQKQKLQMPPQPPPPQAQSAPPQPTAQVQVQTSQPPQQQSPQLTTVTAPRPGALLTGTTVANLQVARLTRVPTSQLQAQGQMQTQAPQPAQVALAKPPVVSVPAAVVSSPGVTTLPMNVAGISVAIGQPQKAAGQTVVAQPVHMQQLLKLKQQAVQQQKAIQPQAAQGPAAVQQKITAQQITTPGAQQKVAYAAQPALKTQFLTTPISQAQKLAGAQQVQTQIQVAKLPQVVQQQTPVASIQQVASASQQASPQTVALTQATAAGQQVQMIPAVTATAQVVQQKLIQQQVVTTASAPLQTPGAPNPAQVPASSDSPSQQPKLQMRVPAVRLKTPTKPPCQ
# Results are given in words; binding and its absence hold for the method and conditions named. Binding seen in cells or lysates may run through a third protein. Here binding means that the protein was enriched with, or labelled near, the bait; the list need not be complete.
# Molecular target: CHD1^WT-Venus (chromodomain helicase DNA-binding 1, wild type) (human) (UniProt O14646)
# Assay: proximity labelling; antibody-based in situ biotinylation: fixed (4% PFA), permeabilised HeLa cells, anti-GFP primary antibody, HRP-conjugated secondary antibody, biotin-tyramide and H2O2 for 1 min (~20 nm radius), avidin pull-down, LC-MS/MS with label-free quantification; single biological replicate
row,Substance,binding
1,ASH2L (from UniProt Q9UBL3 1-628),binds
2,EHMT1 (from UniProt Q9H9B1 1-1298),binds
3,EP400 (from UniProt Q96L91 1-3159),binds
4,SUZ12 (from UniProt Q15022 1-739),binds
